Source: PubChem BioAssay AID652272 (Drosophila RNAi Screening Center, 2013)

Screen: 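Genes whose knock-down decreases or increases Hedgehog reporter output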 (primary screen)
Cells: Drosophila clone 8 (Cl8) cells
Reagents: long dsRNA against Drosophila genes
Measurement: 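Plate reader light from a firefly reporter under a ptc promoter fragment that responds to Hedgehog, with Renilla light as transfection reference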
Reading the numbers: firefly Hh reporter signal: higher = more ptc reporter light; Renilla reference signal: higher = more Renilla control light
Active means: 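Hit when the z-score averaged over two replicates is under -2 or over +3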
Calls: active = hit: reporter lowered or raised; inactive = not a hit
The screen tested about 21,000 reagents; below is an unselected part of those with a known target gene and a result. Over the whole deposit, 503 (2.4%) were called active. 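Raw plate light values, not normalised; calls rest on replicate z-scores that were not deposited; hits include reporter decreases as well as increases.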 A plus sign joins genes that one reagent is predicted to hit. Reagent sequences are not shown. Not stated in the record: the amount of reagent, the time to read-out.

CG34166 [DRSC02482] — firefly Hh reporter signal, replicate 1: 6.83e5; firefly Hh reporter signal, replicate 2: 1.15e5; Renilla reference signal, replicate 1: 4135; Renilla reference signal, replicate 2: 4135; call: inactive
Sf3b5 [DRSC14460] — firefly Hh reporter signal, replicate 1: 45941; firefly Hh reporter signal, replicate 2: 57227; Renilla reference signal, replicate 1: 2256; Renilla reference signal, replicate 2: 2658; call: active
CG33648 [DRSC01387] — firefly Hh reporter signal, replicate 1: 1.35e5; firefly Hh reporter signal, replicate 2: 3.86e5; Renilla reference signal, replicate 1: 3045; Renilla reference signal, replicate 2: 17468; call: inactive
Vps50 [DRSC06910] — firefly Hh reporter signal, replicate 1: 1.06e5; firefly Hh reporter signal, replicate 2: 95030; Renilla reference signal, replicate 1: 4737; Renilla reference signal, replicate 2: 3608; call: inactive
CG14591 [DRSC04868] — firefly Hh reporter signal, replicate 1: 1.01e5; firefly Hh reporter signal, replicate 2: 1.05e5; Renilla reference signal, replicate 1: 2492; Renilla reference signal, replicate 2: 7757; call: inactive
CG44098 [DRSC12214] — firefly Hh reporter signal, replicate 1: 1.27e5; firefly Hh reporter signal, replicate 2: 1.59e5; Renilla reference signal, replicate 1: 3344; Renilla reference signal, replicate 2: 3890; call: inactive
CG44098 [DRSC12240] — firefly Hh reporter signal, replicate 1: 63400; firefly Hh reporter signal, replicate 2: 75542; Renilla reference signal, replicate 1: 2875; Renilla reference signal, replicate 2: 3059; call: inactive
CG44098 [DRSC12327] — firefly Hh reporter signal, replicate 1: 98045; firefly Hh reporter signal, replicate 2: 1.37e5; Renilla reference signal, replicate 1: 2955; Renilla reference signal, replicate 2: 3643; call: inactive
Tsp29Fa [DRSC03232] — firefly Hh reporter signal, replicate 1: 87587; firefly Hh reporter signal, replicate 2: 56672; Renilla reference signal, replicate 1: 2642; Renilla reference signal, replicate 2: 5721; call: inactive
CG7006 [DRSC16169] — firefly Hh reporter signal, replicate 1: 92385; firefly Hh reporter signal, replicate 2: 47314; Renilla reference signal, replicate 1: 4771; Renilla reference signal, replicate 2: 2633; call: inactive
CG8833 [DRSC11050] — firefly Hh reporter signal, replicate 1: 71667; firefly Hh reporter signal, replicate 2: 61651; Renilla reference signal, replicate 1: 2898; Renilla reference signal, replicate 2: 2087; call: inactive
CG14710 [DRSC14933] — firefly Hh reporter signal, replicate 1: 1.16e5; firefly Hh reporter signal, replicate 2: 77008; Renilla reference signal, replicate 1: 4869; Renilla reference signal, replicate 2: 2976; call: inactive
Mp20 [DRSC07474] — firefly Hh reporter signal, replicate 1: 91128; firefly Hh reporter signal, replicate 2: 56963; Renilla reference signal, replicate 1: 2306; Renilla reference signal, replicate 2: 3916; call: inactive
CG34315 + Orc3 [DRSC07642] — firefly Hh reporter signal, replicate 1: 1.16e5; firefly Hh reporter signal, replicate 2: 41708; Renilla reference signal, replicate 1: 4249; Renilla reference signal, replicate 2: 672; call: inactive
Vha100-4 [DRSC16282] — firefly Hh reporter signal, replicate 1: 5.94e5; firefly Hh reporter signal, replicate 2: 1.02e5; Renilla reference signal, replicate 1: 29483; Renilla reference signal, replicate 2: 2540; call: inactive
TH1 [DRSC20289] — firefly Hh reporter signal, replicate 1: 53190; firefly Hh reporter signal, replicate 2: 44773; Renilla reference signal, replicate 1: 1220; Renilla reference signal, replicate 2: 717; call: inactive
Pdzd8 [DRSC19355] — firefly Hh reporter signal, replicate 1: 56212; firefly Hh reporter signal, replicate 2: 2.26e5; Renilla reference signal, replicate 1: 2505; Renilla reference signal, replicate 2: 11960; call: inactive
eIF3a [DRSC12339] — firefly Hh reporter signal, replicate 1: 48325; firefly Hh reporter signal, replicate 2: 74381; Renilla reference signal, replicate 1: 2243; Renilla reference signal, replicate 2: 2636; call: inactive
Bug22 [DRSC02842] — firefly Hh reporter signal, replicate 1: 86272; firefly Hh reporter signal, replicate 2: 46267; Renilla reference signal, replicate 1: 2464; Renilla reference signal, replicate 2: 3968; call: inactive
Prm [DRSC08941] — firefly Hh reporter signal, replicate 1: 83697; firefly Hh reporter signal, replicate 2: 2.34e5; Renilla reference signal, replicate 1: 2326; Renilla reference signal, replicate 2: 7881; call: inactive
Prm [DRSC08942] — firefly Hh reporter signal, replicate 1: 91372; firefly Hh reporter signal, replicate 2: 2.61e5; Renilla reference signal, replicate 1: 2962; Renilla reference signal, replicate 2: 11002; call: inactive
Prm [DRSC11255] — firefly Hh reporter signal, replicate 1: 1.46e5; firefly Hh reporter signal, replicate 2: 92112; Renilla reference signal, replicate 1: 6204; Renilla reference signal, replicate 2: 4085; call: inactive

Laid out differently: 3 of the entries above
Gene	DRSC id	firefly Hh reporter signal, replicate 1	firefly Hh reporter signal, replicate 2	Renilla reference signal, replicate 1	Renilla reference signal, replicate 2	call
eIF3a	DRSC12339	48325	74381	2243	2636	inactive
Bug22	DRSC02842	86272	46267	2464	3968	inactive
Prm	DRSC08941	83697	2.34e5	2326	7881	inactive
